Patent publication US20080306243A1, “Hla-Binding Peptide, and Dna Fragment and Recombinant Vector Coding for Said Hla-Binding Peptide” (NEC CORPORATION, priority 2005, published 2008)
Not every detail of the peptide structures is certain; ends, links or a residue may be inferred. Some compounds share one wording; it may come from a single statement. Ends that are not written are not given here.

system: human HLA-A type molecule; test: Binding experiments summarised for HLA-A type molecules; details: result in words
Method: The ability of a peptide to bind to an HLA-A2402 molecule, which is a product of the HLA-A*2402 gene, was measured using C1R-A24 cells expressing the HLA-A*2402 gene (cells prepared by Professor Masafumi Takiguchi, Kumamoto University being supplied with permission by Assistant Professor Masaki Yasukawa, Ehime University).
C1R-A24 cells were first exposed to acidic conditions at a pH of 3.3 for 30 seconds, thus dissociating and removing a light chain β2m, which is associated with HLA class I molecules in common, and an endogenous peptide originally bound to the HLA-A2402 molecule. After neutralization, purified β2m was added to C1R-A24 cells, the obtained product was added to serial dilutions of a peptide, and incubated on ice for 4 hours. Staining was carried out using fluorescently labeled monoclonal antibody 17A12, which recognizes association (MHC-pep) of the three members, that is, HLA-A2402 molecule, the peptide, and β2m, which had reassociated during the incubation.
Subsequently, the MHC-pep count per C1R-A24 cell (proportional to the strength of fluorescence of the above-mentioned fluorescent antibody) was quantitatively measured using an FACScan fluorescence-activated cell sorter (Becton Dickinson Biosciences). A binding dissociation constant Kd value between the HLA-A24 molecule and the peptide was calculated from the average strength of fluorescence per cell by a published method (Udaka et al., Immunogenetics, 51, 816-828, 2000).
The ability of a peptide to bind to an HLA-A0201 molecule, which is a product of the HLA-A*0201 gene, was measured using strain JY cells expressing the HLA-A*0201 (obtained from ATCC (American Type Culture Collection)).
JY cells were first exposed to acidic conditions at a pH of 3.8 for 30 seconds, thus dissociating and removing a light chain β2m and an endogenous peptide, which were noncovalently associated with the HLA-A0201 molecule. After neutralization, a reassociation experiment was carried out. The above-mentioned JY cells and the purified β2m were added to stepped serial dilutions of peptide for which the binding ability was to be measured, and incubation was carried out on ice for 4 hours. […]
Subsequently, the amount of fluorescence per cell was measured using a flow cytometer and a dissociation constant Kd value was calculated by a published method (Udaka et al., Immunogenetics, 51, 816-828, 2000).
The ability of a peptide to bind to an HLA-A0206 molecule, which is a product of the HLA-A*0206 gene, was measured using RA2.6 cells (cell strain newly prepared in Kochi University), wherein cDNA of the HLA-A*0206 gene is expressed in RAMS cells, which are mouse peptide transporter TAP-deficient cells. […]

Binding to a human HLA-A type molecule, experimentally confirmed to bind:
CSCC[C@H](N)C(=O)N[C@@H](CC(C)C)C(=O)N[C@@H](CC(C)C)C(=O)N[C@@H](CCCNC(=N)N)C(=O)N[C@@H](CC(C)C)C(=O)N[C@@H](CO)C(=O)N[C@@H](CCC(=O)O)C(=O)N1CCC[C@H]1C(=O)N[C@@H](C)C(=O)O [compound 17], CC(C)C[C@H](NC(=O)[C@@H](NC(=O)CN)C(C)C)C(=O)N[C@H](C(=O)N[C@@H](Cc1c[nH]cn1)C(=O)N1CCC[C@H]1C(=O)N[C@@H](CCC(N)=O)C(=O)N[C@@H](Cc1c[nH]c2ccccc12)C(=O)N[C@H](C(=O)O)C(C)C)C(C)C [compound 19], CC(C)C[C@H](N)C(=O)N[C@H](C(=O)N[C@@H](C)C(=O)N[C@@H](CO)C(=O)N[C@@H](CCCNC(=N)N)C(=O)NCC(=O)N[C@@H](CCCNC(=N)N)C(=O)N[C@@H](C)C(=O)N[C@H](C(=O)O)C(C)C)C(C)C [compound 22], FHPEDTGQV [compound 13]
